Source: patent publication US20040162467A1, “Non-invasive transudate extraction” (priority 2001, published 2004)

How the values were obtained:
[1] = Serum, transdermal and saliva samples from sheep before, during and after exercise
Procedure: (§1) Sodium lauryl sulfate (40%) and either a commercial ultrasound conductive gel (Aquasonic, Parker Lab., NJ 07004, USA) or a 10% ethanol gel (the two gels were alternated in use) are employed. These gels are designated SLS-UG and SLS-EG respectively herein. Collected SLS-UG and SLS-EG are assayed as for blood. Saliva was divided into two samples. The first sample is stored at −20° C. and assayed as for blood. The second sample is assayed at the time of experimentation using the apparatus and immunosensors described above.
(§2) Student t tests, ANOVA or Wilcoxon test for paired samples are made as appropriate. Statistical significance is taken at P≦0.05 level. For analysis across the exercise stress, data is grouped into pre, during and post exercise values as actual sample times relative to the exercise for transdermal and blood obtained values. For pre, during and post exercise grouping of saliva samples, a 20-min lag was allowed relative to blood and transdermal values in sheep and a 30-min lag in human subjects.
In the remaining 10 sheep, experimentation took place on three separate days, each 3 days apart. On days of experimentation, animals were penned as above and the jugular vein of the animal was catheterised. Animals were left to rest for 50 min and then a single ultrasound application applied for 1 min as above. […] A series of electrosonophoresis collections were made concurrently with blood collection from the jugular vein, every 5 min for a further 1 h. Saliva samples were collected on every second blood sample (i.e. every 10 min). At completion of this time, a human shepherd, intermittently for 30 min, then ran the animals around a paddock. During this 30 min, each animal was briefly restrained manually and sampled on all three parameters every 10 min (i.e. three samples repeated three times). At the end of this period, animals were repenned and rested for 10 min, and a further saliva collection was made. Following this saliva collection for a further 1-h period, collection as above, prior to exercise, was repeated. […]

[2] = Serum, transdermal and saliva samples from human subjects before, during and after exercise
Procedure: as §1, §2
Ten human volunteers (males aged 19-23, body weights 85-103 kg) were seated at 09:30 h. During the experiment, they were held at a room temperature of 20-22° C. An initial 1 min burst of ultrasound, as for the sheep (above), was made on the volar surface of the forearm, following application of SLS-EG mix. […]

With “Insulin: endogenous hormone analyte measured in serum and exudate” the Measurable in saliva [1] was “not detectable”, the “Measurable in transdermal exudates” value [1] was “measurable” and the “Change with the exercise” value ([1]; P≦0.05 for rise and decrease) was “decreased”. The “Measurable in transdermal exudates” value [2] was “measurable quantities” and the Change with exercise ([2]; across exercise and recovery) was “decreased”.
